Source: PubChem BioAssay AID504327 (National Center for Advancing Translational Sciences (NCATS), 2011)
The whole screen tested about 390,000 compounds, of which about 820 (0.21%) were called active. The shares of active, inactive and inconclusive entries below differ from those in the screen. Calls follow the shape of the dose curve; as a rule, active = well fitted inhibition curve with a large enough effect; inconclusive = small, poorly fitted or top-dose-only effect, or another doubt; inactive = no such curve, though single readings can be large or run the other way. A potency beside an inconclusive call is a rough fit, not a confirmed value.

Sequences of proteins named here, by UniProt entry; tags and fusion partners are left off.
UniProt Q92830, whole entry, looked up: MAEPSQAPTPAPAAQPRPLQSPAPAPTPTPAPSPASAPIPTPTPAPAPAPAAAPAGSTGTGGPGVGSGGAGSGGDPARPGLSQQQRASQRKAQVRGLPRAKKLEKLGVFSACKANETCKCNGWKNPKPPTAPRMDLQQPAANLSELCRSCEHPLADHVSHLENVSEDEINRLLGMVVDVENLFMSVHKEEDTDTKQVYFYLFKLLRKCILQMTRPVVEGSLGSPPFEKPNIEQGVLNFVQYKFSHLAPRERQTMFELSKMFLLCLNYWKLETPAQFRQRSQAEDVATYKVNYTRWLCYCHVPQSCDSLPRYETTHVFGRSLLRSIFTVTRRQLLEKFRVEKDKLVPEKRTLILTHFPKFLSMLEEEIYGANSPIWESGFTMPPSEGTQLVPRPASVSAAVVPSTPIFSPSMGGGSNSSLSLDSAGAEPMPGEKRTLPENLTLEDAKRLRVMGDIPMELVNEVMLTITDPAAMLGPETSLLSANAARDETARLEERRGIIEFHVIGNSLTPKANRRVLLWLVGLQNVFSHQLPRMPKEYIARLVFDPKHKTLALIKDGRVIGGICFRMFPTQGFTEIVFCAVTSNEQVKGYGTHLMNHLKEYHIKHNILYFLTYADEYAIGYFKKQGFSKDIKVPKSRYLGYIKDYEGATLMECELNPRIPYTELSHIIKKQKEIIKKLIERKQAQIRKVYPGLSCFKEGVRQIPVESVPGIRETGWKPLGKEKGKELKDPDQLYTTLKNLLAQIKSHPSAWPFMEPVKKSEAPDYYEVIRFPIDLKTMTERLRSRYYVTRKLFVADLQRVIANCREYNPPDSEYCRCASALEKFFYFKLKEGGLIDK

What follows are compounds tested against Histone acetyltransferase KAT2A (Homo sapiens) (UniProt Q92830) (assay: qHTS Assay for Inhibitors of GCN5L2). Details: GCN5L2 HAT assay, ThioGlo1 CoA-SH fluorescence; activity change, negative = inhibition: at 58.9 µM (top of the series) unless noted.
In short: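 Fluorescence readout, Ex340nm/Em540nm: ThioGlo1 (50uM final) reacts with free CoA thiol released as 20nM GCN5L2 acetylates H3(1-25) peptide (75uM) using acetyl-CoA (70uM). Compound and enzyme sat 15 min beforehand; 20 min room-temperature reaction.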
% is scaled to controls: 0 for no effect and ±100 for the full control effect; potency is read from the fitted curve at half-maximal effect.

Structure (SMILES) | Potency | activity change, negative = inhibition
COc1cccc(-c2nn(-c3ccc(C)cc3)cc2C(=O)N2CCc3cc(OC)c(OC)cc3C2)c1 | inconclusive: 7.08 µM [inhibitor, full curve, poor fit] | –
COc1cc(C(=O)NC(=S)Nc2ccc(Cl)cn2)cc(OC)c1OC | – | inactive: -19.4%
COc1ccc(-c2nc3cnc(N4CCOCC4)nc3n(-c3ccc(OC)cc3)c2=O)cc1 | inconclusive: 28.2 µM [inhibitor, partial curve] | –
CCCOc1cccc(C2c3c(oc4ccc(F)cc4c3=O)C(=O)N2c2nc(C)c(C(C)=O)s2)c1 (stereo not drawn) | – | inactive: 0.997%
CCN(CC)CCN(C(=O)c1ccc2ncsc2c1)c1nc2cc3c(cc2s1)OCO3 | inconclusive: 31.6 µM [inhibitor, single point] | –
Nc1ccc2nc(Cc3ccccc3)[nH]c2c1 | inconclusive: 1.78 µM [inhibitor, partial curve, poor fit] | –
CCCOc1ccc(CCc2n[nH]c(=S)n2Cc2ccccc2)cc1 | inconclusive: 39.8 µM [inhibitor, single point] | –
Nc1ccc2nc(-c3ccccn3)[nH]c2c1 | – | inactive: -0.207%
N#Cc1c(Nc2ccccc2)s[nH]c1=O | – | inactive: -5.44%
COc1cc2c(cc1OC)CN(c1nc(CN3CCOCC3)nc3sc4c(c13)CCC(C)C4)CC2 (stereo not drawn) | – | inactive: -3.69%
C=CCn1c(COc2ccc(CC)cc2)nnc1SCC(=O)N(C)C1CCS(=O)(=O)C1 (stereo not drawn) | inconclusive: 6.31 µM [inhibitor, single point] | –
COc1cc(Cl)ccc1OCc1cc(C(=O)N2CCCC(OC)C2)no1 (stereo not drawn) | – | inactive: -3.22%
Cc1[nH]c2ccccc2c1C(=O)C(=O)N1CC=C(c2ccccc2)CC1 | – | inactive: -2.5%
COc1cc(/C=C2\SC(=S)N(C(C(=O)O)c3ccccc3)C2=O)cc(OC)c1OC (stereo not drawn) | – | inactive: -8.2%
O=C(CCC1CCN(C(=O)c2cccc(Cl)c2F)CC1)Nc1ccccc1 | inconclusive: 12.6 µM [inhibitor, partial curve] | –
CCN(CC)c1ccc(NC(=S)NC(=O)C2CCC2)cc1 | inconclusive: 1 µM [inhibitor, full curve, poor fit] | –
Cc1ccc(-c2cc(C(=O)NC3=NCCS3)c3cc(Br)ccc3n2)o1 | inconclusive: 31.6 µM [inhibitor, partial curve] | –
Cc1ccc(-c2nnc(Nc3ccccc3)o2)cc1 | inconclusive: 4.47 µM [inhibitor, single point] | –
CC(Oc1ccccc1)C(=O)NNC(=O)c1ccccn1 (stereo not drawn) | – | inactive: -6.11%
Cc1ccccc1N(Cc1cc(=O)[nH]c2ccccc12)C(=O)CCl | inconclusive: 1 µM [inhibitor, single point] | –
COc1ccc(-c2cc3ccc(O)c(CN4CCCC4)c3oc2=O)cc1OC | active: 14.1 µM | –
Cc1cc(C)c(NC(=O)OCCN2CCOCC2)c(C)c1 | – | inactive: -3.86%
Cc1ccc(NC(=O)CCc2c(C)nc3ncnn3c2C)cc1 | inconclusive: 39.8 µM [inhibitor, single point] | –

Structure (SMILES) | Potency | activity change, negative = inhibition
Cc1ccccc1CNC(=O)C(=O)NCC1CCCN1S(=O)(=O)c1ccccc1 (stereo not drawn) | – | inactive: -20.3%
COc1ccc(C(=O)NCCCN2CCN(CCCNC(=O)c3ccc(OC)c(OC)c3)CC2)cc1OC | – | inactive: 3.88%
CN1C(=O)/C(=C2/C=CC=CN2C)OC1=S | – | inactive: -5.05%
O=C(Cc1cccs1)Nc1nnc(SCc2ccc(C(F)(F)F)cc2)s1 | – | inactive: -6.06%
Fc1ccc(CN2CC[C@H]3C=CCc4cccc(c43)C2)cc1 | – | inactive: -6.5%
COc1ccc(CCNC(=O)CSc2nc3sc(C(=O)O)c(C)c3c(=O)[nH]2)cc1OC | inconclusive: 8.91 µM [inhibitor, partial curve] | –
CCOc1ccc(NC(=O)CN(C)C(=O)c2cccc(S(=O)(=O)N3CCCC3)c2)cc1OCC | inconclusive: 0.1 µM [inhibitor, full curve, poor fit] | –
Cc1cccc(CNC(=O)C2CCC(=O)N(Cc3ccccc3F)C2)n1 (stereo not drawn) | inconclusive: 2.82 µM [inhibitor, partial curve, poor fit] | –
COc1c(O)cc2c(c1O)C1OC(CO)C(O)[C@H](O)[C@H]1OC2=O (stereo partly drawn) | – | inactive: -0.159%
N/C(=N\OC(=O)CCC1CCCCC1)c1ccc([N+](=O)[O-])cc1 | inconclusive: 0.794 µM [inhibitor, partial curve, poor fit] | –
Cc1[nH]n(-c2ccc([N+](=O)[O-])cc2)c(=O)c1C=NCCN1CCN(C(=O)c2ccccc2F)CC1 | inconclusive: 0.794 µM [inhibitor, single point] | –
COc1ccc(-c2cc(C(=O)NCCCN3CCOCC3)c3cc(C(C)C)ccc3n2)cc1 | inconclusive: 10 µM [inhibitor, partial curve, poor fit] | –
CCN(CC)C(=O)c1sc2nc(-c3cccs3)cc(-c3ccc(Cl)cc3)c2c1N | inconclusive: 17.8 µM [inhibitor, partial curve] | –
CCCOc1ccc(C(C)=O)cc1CSc1nc(O)cc(=O)[nH]1 | – | inconclusive: -108% [inhibitor] [at 0.501 µM]
COCCCn1c(C(=O)N2CCOCC2)cc2c(=O)n3ccccc3nc21 | inconclusive: 25.1 µM [inhibitor, partial curve] | –
Cc1noc(/C=C/c2ccco2)c1S(=O)(=O)N1CCC(C(=O)N2CCc3ccccc3C2)CC1 | inconclusive: 25.1 µM [inhibitor, single point] | –
CC1(C)Cc2ccccc2-c2nc(-c3ccccc3)oc(=O)c21 | inconclusive: 39.8 µM [inhibitor, single point] | –
CC(Oc1ccc2ccc(=O)oc2c1)C(=O)NC(Cc1c[nH]c2ccc(O)cc12)C(=O)O (stereo not drawn) | – | inactive: 37.2%
Cc1cccc(C(=O)Nc2nnc(-c3ccc(C(C)(C)C)cc3)s2)c1 | inconclusive: 39.8 µM [inhibitor, single point] | –
CCC(c1nnnn1Cc1ccco1)N(Cc1cc2cc(OC)ccc2[nH]c1=O)C1CCCCC1 (stereo not drawn) | inconclusive: 39.8 µM [inhibitor, single point] | –
COc1cc(OC)cc(-c2nnc(NC(=O)CCS(=O)(=O)c3ccc(C)cc3)o2)c1 | inconclusive: 35.5 µM [inhibitor, single point] | –
COc1ccc(CCNC(=O)Cn2nc(C)c3c(C)n(-c4ccc(C)cc4)nc3c2=O)c(OC)c1 | inconclusive: 39.8 µM [inhibitor, single point] | –
CCOC(=O)CC1COCCN1C(=O)c1ccc2oc(Cc3ccccc3)nc2c1 (stereo not drawn) | inconclusive: 0.398 µM [inhibitor, full curve, poor fit] | –

Reprinted at random: three entries already listed
Structure (SMILES) | Potency | activity change, negative = inhibition
COc1c(O)cc2c(c1O)C1OC(CO)C(O)[C@H](O)[C@H]1OC2=O (stereo partly drawn) | – | inactive: -0.159%
COc1ccc(CCNC(=O)Cn2nc(C)c3c(C)n(-c4ccc(C)cc4)nc3c2=O)c(OC)c1 | inconclusive: 39.8 µM [inhibitor, single point] | –
Fc1ccc(CN2CC[C@H]3C=CCc4cccc(c43)C2)cc1 | – | inactive: -6.5%

Remaining list, next part:

Structure (SMILES) | Potency | activity change, negative = inhibition
CC(=O)N1Cc2ccccc2CC1C(=O)OCC(=O)c1c(N)n(C)c(=O)n(C)c1=O (stereo not drawn) | – | inactive: -4.16%
O=c1cc(-c2ccc([N+](=O)[O-])cc2)nc2cc(-c3ccc(F)cc3)[nH]n12 | – | inactive: -11.8%
Cc1cc(OCC(=O)NC(Cc2c[nH]c3ccc(O)cc23)C(=O)O)c2c(C)c(C)c(=O)oc2c1 (stereo not drawn) | inconclusive: 39.8 µM [inhibitor, single point] | –
O=C(Nc1ccccc1)N1CCCC2CCCCC21 (stereo not drawn) | inconclusive: 39.8 µM [inhibitor, single point] | –
O=C(N/N=C/c1ccc(Br)s1)c1ccco1 | – | inactive: -17%
O=C(Cc1ccc(NC2=NC3CS(=O)(=O)CC3S2)cc1)N1CCN(c2ccc(F)cc2)CC1 (stereo not drawn) | inconclusive: 7.08 µM [inhibitor, single point] | –
COc1cc(CSc2nnnn2-c2ccc(C)cc2)cc(OC)c1OC | inconclusive: 0.126 µM [inhibitor, full curve, poor fit] | –
CS(=O)(=O)Nc1cccc(-c2nccc(Nc3ccc(F)cc3)n2)c1 | inconclusive: 31.6 µM [inhibitor, single point] | –
CCOCC(=O)Nc1cc(C(=O)Nc2ccc(F)cc2)ccc1Cl | inconclusive: 5.62 µM [inhibitor, single point] | –
O=C1CN(C(=O)N[C@@H](Cc2ccccc2)C(=O)N[C@@H](Cc2ccccc2)C(=O)O)c2ccccc2N1 | inconclusive: 39.8 µM [inhibitor, partial curve, poor fit] | –
Cn1c(=O)c(=O)n(C)c2cc(S(=O)(=O)Nc3ccc(Cl)c(C(F)(F)F)c3)ccc21 | – | inactive: -7.3%
Fc1ccc(Nc2c(-c3ccco3)nc3ccccn23)cc1 | inconclusive: 17.8 µM [inhibitor, single point] | –
O=C(CSc1ccccn1)Nc1ccc2c(c1)C(=O)c1ccccc1C2=O | inconclusive: 17.8 µM [inhibitor, partial curve] | –
Cc1ccc(NC(=O)C(=O)NCCN2CCN(C(=O)C(c3ccccc3)c3ccccc3)CC2)cc1 | inconclusive: 0.891 µM [inhibitor, single point] | –
Cc1cc(=O)oc2cc(OCC(=O)Nc3c(C(C)C)cccc3C(C)C)ccc12 | – | inactive: -5.96%
O=C(NC1CCCCC1)C(=S)NCCc1ccccc1 | – | inactive: -11.1%
CC(C)(C)OC(=O)[C@H](Cc1ccccc1)NC(=O)c1nc[nH]c1C(=O)NCC(=O)OCc1ccccc1 | inconclusive: 17.8 µM [inhibitor, partial curve, poor fit] | –
O=C(CSc1nc(NS(=O)(=O)c2ccccc2)cc(=O)[nH]1)Nc1cccc(C(F)(F)F)c1 | inconclusive: 31.6 µM [inhibitor, single point] | –
C=CCN(c1nc(C)cc(OC)n1)S(=O)(=O)c1ccccc1 | inconclusive: 35.5 µM [inhibitor, single point] | –
CC(=O)c1c(COC(=O)c2ccncc2)nc2ccccc2[n+]1[O-] | – | inactive: -15.4%
O=C(NCC1CCCO1)C1CCN(C2CCN(C3CCCCCC3)CC2)CC1 (stereo not drawn) | inconclusive: 8.91 µM [inhibitor, single point] | –
COc1ccc(C2SCC(=O)N2c2ccc(F)cc2)cc1 (stereo not drawn) | inconclusive: 0.126 µM [inhibitor, full curve, poor fit] | –
